# The campaign covered roughly 320,000 compounds. About 22,000 (6.9%) were called active. Inconclusive means that the source gave no clear call. Such entries were picked first, then a sample of the others. Calls follow the shape of the dose curve; as a rule, active = well fitted inhibition curve with a large enough effect; inconclusive = small, poorly fitted or top-dose-only effect, or another doubt; inactive = no such curve, though single readings can be large or run the other way. Potencies of inconclusive entries are doubtful fits and often do not repeat.
# Test: Primary qHTS for delayed death inhibitors of the malarial parasite plastid, 96 hour incubation
# Settings: P. falciparum luciferase reporter growth; series mostly up to 28.7 µM; activity change, negative = inhibition: at the top concentration
# How it was run: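 Plates of compound plus infected erythrocytes (2% hematocrit, 0.05% parasitemia final) incubate 96 hours, 37 C, 5% CO2. Detection reagent added; reduced luminescence from the parasites' luciferase reporter flags inhibition.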
# % is scaled to controls: 0 for no effect and ±100 for the full control effect; potency is read from the fitted curve at half-maximal effect.
Structure (SMILES),Potency,"activity change, negative = inhibition"
COc1ccc([C@@H]2C[C@@H](c3ccccc3)Oc3cc(OC)cc(OC)c32)cc1,"inconclusive: 18.5 µM [inhibitor, single point]",
CCOc1ccccc1C(=O)Nc1nn[nH]n1,,inactive: 3.27%
CCn1c(CC(=O)Nc2ccc(F)cc2)nnc1SCC(=O)Nc1nnc(C)s1,,inactive: 14.4%
O=C(/C=C/c1ccc(F)cc1)Nc1cc(S(=O)(=O)N2CCOCC2)ccc1N1CCCC1,"inconclusive: 5.86 µM [inhibitor, partial curve, poor fit]",
Cc1ccc(NC(=O)OCc2ccccc2S(C)=O)cc1 (stereo not drawn),"inconclusive: 0.0329 µM [inhibitor, full curve, poor fit]",
Cc1cc(SCc2c(F)cccc2Cl)nc(=O)[nH]1,active: 11.7 µM,
CCCCNC(=O)CNC(=S)N(Cc1ccccc1)Cc1cccnc1,"inconclusive: 14.7 µM [inhibitor, single point]",
Cc1ccc2c(c1)=C/C(=C\c1c(O)[nH]c(=S)[nH]c1=O)C(=O)N=2,"inconclusive: 13.1 µM [inhibitor, partial curve]",
Cc1cc(C)c(C)c(S(=O)(=O)NC(C(=O)NCCc2ccco2)C(C)C)c1C (stereo not drawn),"inconclusive: 18.5 µM [inhibitor, single point]",
C#CCOCCOCCOCCNc1nc(N2CCN(C(=O)[C@H]([C@@H](C)CC)n3cc(CCCCN)nn3)CC2)nc(N2CCN(C(=O)[C@H](CCCCN)n3cc(CCCC)nn3)CC2)n1,,inactive: -27.3%
Cc1nn(CC(=O)N2c3ccccc3NC(=O)C2(C)C)c(C)c1[N+](=O)[O-],"inconclusive: 9.28 µM [inhibitor, partial curve, poor fit]",
NC(=O)Cn1c(=O)n(CCC(=O)Nc2ccc(F)cc2)c(=O)c2sccc21,,inactive: 23.3%
CCc1nc(SCC(=O)NCc2ccc(F)cc2)c2c(=O)n(C)c(=O)n(C)c2n1,,inactive: 32.2%
CC(=O)Nc1ccccc1Nc1cc(C#N)c(C#N)cc1[N+](=O)[O-],active: 7.38 µM,
CC(=O)c1cccc(NC(=O)C(C)N(C)CC(=O)Nc2ccc(Cl)cc2)c1 (stereo not drawn),"inconclusive: 18.5 µM [inhibitor, single point]",
COc1ccccc1C(c1nnnn1CS(=O)(=O)c1ccc(C)cc1)N1CCSCC1 (stereo not drawn),,inactive: 99.6%
CCc1ccc(N(C(=O)CNC(=O)c2cccs2)C(C(=O)NC(C)(C)C)c2cc(OC)c(OC)c(OC)c2)cc1 (stereo not drawn),"inconclusive: 18.5 µM [inhibitor, partial curve, poor fit]",
CCOC(=O)c1c(-c2ccccc2)csc1NC(=S)N(CC)CC,active: 5.22 µM,
COc1ccc(S(=O)(=O)N2CCCCC2)cc1C(=O)N1CCCC1,active: 2.33 µM,
C[N+]1(CC(O)COc2ccccc2)CCN(C(=O)c2ccc([N+](=O)[O-])cc2)CC1 (stereo not drawn),"inconclusive: 11.7 µM [inhibitor, single point]",
Nc1nc(/C(=C/CC(=O)O)C(=O)NC2C(=O)N3C(C(=O)O)=CCSC23)cs1 (stereo not drawn),,inactive: -5.4%
CC(=O)[C@@H]1CC[C@@H]2[C@@H]3C[C@H](C)C4=CC(=O)CC[C@@]4(C)[C@H]3[C@H](O)C[C@]21C,"inconclusive: 5.1 µM [inhibitor, partial curve]",

# Some values from above:
# Value for `Cc1ccc(NC(=O)OCc2ccccc2S(C)=O)cc1` (stereo not drawn) under Potency: inconclusive: 0.0329 µM [inhibitor, full curve, poor fit]
# Value for `Cc1nn(CC(=O)N2c3ccccc3NC(=O)C2(C)C)c(C)c1[N+](=O)[O-]` under Potency: inconclusive: 9.28 µM [inhibitor, partial curve, poor fit]
# Value for `Cc1ccc2c(c1)=C/C(=C\c1c(O)[nH]c(=S)[nH]c1=O)C(=O)N=2` under Potency: inconclusive: 13.1 µM [inhibitor, partial curve]

# The list goes on.

Structure (SMILES),Potency,"activity change, negative = inhibition"
CC1(C)Cc2nc(-c3ccccc3)nc(SCC(=O)N3CCCC3)c2CO1,"inconclusive: 1.04 µM [inhibitor, full curve, poor fit]",
Cc1cc(C)n(CCNC(=O)c2cc(COc3c(F)cccc3F)on2)n1,"inconclusive: 20.8 µM [inhibitor, single point]",
Cc1ccc(-c2oc3ccccc3c(=O)c2OCC(=O)O)cc1,,inactive: 8.47% [at 5.75 µM]
Cc1nc(Cl)sc1C(=O)Nc1cc(F)cc(F)c1,"inconclusive: 10.4 µM [inhibitor, partial curve, poor fit]",
COc1ccc(CNC(=O)Nc2cccc(Cl)c2)cc1,active: 10.4 µM,
CC(C)COc1ccc(C(=O)N/C(=C\c2cccc([N+](=O)[O-])c2)C(=O)OC(C)C)cc1,,inactive: 12.7%
O=C(Oc1ccc([N+](=O)[O-])cc1)N1CCC(N2CCCCC2)CC1,"inconclusive: 18.5 µM [inhibitor, single point]",
Cc1ccccc1OCC(=O)N(Cc1cccc(F)c1)C1CCS(=O)(=O)C1 (stereo not drawn),"inconclusive: 11.7 µM [inhibitor, single point]",
O=C(CSC1=NCCS1)N1CCCCCC1,"inconclusive: 18.5 µM [inhibitor, single point]",
CCc1ccc(OCC(=O)NC(NC(=S)Nc2ccc(C)cc2C)C(Cl)(Cl)Cl)cc1 (stereo not drawn),"inconclusive: 18.5 µM [inhibitor, single point]",
Cc1ccc(-c2oc3ncnc(N)c3c2-c2ccc(C)cc2)cc1,,inactive: 9.71%
Nc1ccc(C(=O)Nc2nc3ccccc3s2)cc1,,inactive: 243%
O=C1C=C(c2cc3ccccc3s2)C[C@@H](c2ccc(F)cc2)C1,"inconclusive: 18.5 µM [inhibitor, single point]",
Cc1cc(NC(=O)CSc2ncccn2)no1,"inconclusive: 18.5 µM [inhibitor, single point]",
CCN(CC)c1ccc(-c2sc(Nc3ccccc3)n[n+]2-c2ccc(F)cc2)cc1,active: 9.28 µM,
O=C1CC(c2ccccc2)CC(O)=C1C=Nc1ccccc1Cl (stereo not drawn),"inconclusive: 11.7 µM [inhibitor, single point]",
COc1ccccc1-n1cc(-c2ccccc2)c2c(=S)nc[nH]c21,"inconclusive: 11.7 µM [inhibitor, single point]",
CN(CCOc1ccccc1)C(=O)c1cc(-c2ccco2)nc2ccccc12,"inconclusive: 16.5 µM [inhibitor, single point]",
O=C(Nc1nc(-c2ccccc2)cs1)C1CCCN(S(=O)(=O)c2ccccc2)C1 (stereo not drawn),"inconclusive: 18.5 µM [inhibitor, single point]",
CC(=O)Nc1ccc(OCC(O)CN2CCN(c3ccc(Cl)cc3)CC2)cc1 (stereo not drawn),"inconclusive: 18.5 µM [inhibitor, single point]",
NC(=O)c1nsc(C(=O)N(c2ccccc2)C(C(=O)NC2CCCC2)c2cccs2)c1N (stereo not drawn),"inconclusive: 1.65 µM [inhibitor, full curve, poor fit]",
